Source: publication PMC10576099, “Endothelial discoidin domain receptor 1 senses flow to modulate YAP activation” (Nature Communications, 2023)

Protein sequences, listed by entry. Tags and fused reporters are not part of them. Residues count along the entry.
UniProt Q08345, residues 19-913: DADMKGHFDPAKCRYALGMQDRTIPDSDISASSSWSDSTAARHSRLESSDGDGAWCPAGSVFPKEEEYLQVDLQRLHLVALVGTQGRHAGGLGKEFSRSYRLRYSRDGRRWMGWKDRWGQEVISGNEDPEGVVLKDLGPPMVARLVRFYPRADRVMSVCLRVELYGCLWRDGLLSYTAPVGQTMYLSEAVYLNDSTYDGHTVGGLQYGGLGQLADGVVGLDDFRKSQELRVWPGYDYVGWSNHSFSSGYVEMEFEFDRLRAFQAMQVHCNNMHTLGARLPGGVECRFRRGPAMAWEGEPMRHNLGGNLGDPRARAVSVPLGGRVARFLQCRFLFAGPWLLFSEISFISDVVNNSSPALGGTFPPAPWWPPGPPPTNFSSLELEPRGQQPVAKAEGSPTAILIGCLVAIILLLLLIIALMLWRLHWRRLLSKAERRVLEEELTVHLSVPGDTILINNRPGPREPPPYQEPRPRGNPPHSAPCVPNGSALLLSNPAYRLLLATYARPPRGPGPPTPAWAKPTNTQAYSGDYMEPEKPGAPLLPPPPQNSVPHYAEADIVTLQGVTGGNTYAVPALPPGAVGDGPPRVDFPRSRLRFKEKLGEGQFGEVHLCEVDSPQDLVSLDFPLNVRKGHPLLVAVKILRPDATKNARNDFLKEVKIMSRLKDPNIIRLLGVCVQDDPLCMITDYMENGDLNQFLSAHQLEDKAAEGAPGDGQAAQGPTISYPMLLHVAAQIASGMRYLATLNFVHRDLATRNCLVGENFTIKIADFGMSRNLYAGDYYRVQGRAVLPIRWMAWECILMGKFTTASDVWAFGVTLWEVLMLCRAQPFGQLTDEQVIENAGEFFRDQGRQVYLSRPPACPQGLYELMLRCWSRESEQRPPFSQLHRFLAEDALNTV
UniProt P62258: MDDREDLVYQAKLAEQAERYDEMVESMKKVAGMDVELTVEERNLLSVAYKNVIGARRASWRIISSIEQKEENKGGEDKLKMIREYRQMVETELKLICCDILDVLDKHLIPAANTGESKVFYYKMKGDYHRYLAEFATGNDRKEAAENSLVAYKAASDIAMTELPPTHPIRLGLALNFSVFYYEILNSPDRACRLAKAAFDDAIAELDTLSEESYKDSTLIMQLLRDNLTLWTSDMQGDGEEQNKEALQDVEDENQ
UniProt P04792: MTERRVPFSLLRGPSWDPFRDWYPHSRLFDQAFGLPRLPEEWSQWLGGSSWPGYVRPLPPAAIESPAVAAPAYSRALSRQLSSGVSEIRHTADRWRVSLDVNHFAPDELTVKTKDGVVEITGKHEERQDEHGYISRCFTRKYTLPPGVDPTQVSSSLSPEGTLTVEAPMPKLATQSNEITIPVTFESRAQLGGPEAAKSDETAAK

Tests used:
[1] = target: discoidin domain receptor 1 (DDR1), endogenous in HUVECs (human (endogenous in HUVECs)) (UniProt Q08345); assay: affinity purification with mass spectrometry; HUVEC lysates (static, PS or OS for 3 h), anti-DDR1 monoclonal antibody (Santa Cruz sc-374618), SDS-PAGE, mass spectrometry
[2] = target: discoidin domain receptor 1 (DDR1), endogenous in HUVECs (human (endogenous in HUVECs)) (UniProt Q08345); assay: affinity purification with mass spectrometry; as a5, samples from HUVECs in OS or static culture only

| binding [1] | Molecule | binding [2] |
| --- | --- | --- |
| binds | YWHAE (14-3-3ε), endogenous in HUVECs (from UniProt P62258 1-255) | – |
| binds | HSPB1, endogenous in HUVECs (from UniProt P04792 1-205) | – |
| binds | YWHAQ, endogenous in HUVECs (protein, UniProt P27348 1-245) MEKTELIQKAKLAEQAERYDDMATCMKAVTEQGAELSNEERNLLSVAYKNVVGGRRSAWRVISSIEQKTDTSDKKLQLIKDYREKVESELRSICTTVLELLDKYLIANATNPESKVFYLKMKGDYFRYLAEVACGDDRKQTIDNSQGAYQEAFDISKKEMQPTHPIRLGLALNFSVFYYEILNNPELACTLAKTAFDEAIAELDTLNEDSYKDSTLIMQLLRDNLTLWTSDSAGEECDAAEGAEN | no binding (only HUVECs in OS or static culture) |

No constants are given. Whether binding was seen depends on the method and setting. Binding seen in cells or lysates may run through a third protein. A yes stands for co-enrichment or nearness to the bait. Other partners may have been found. For some of these results: No binding means not detected with the bait.
